According to publication PMC8121353:
No constants are given. Whether binding was seen depends on the method and setting. In cells and extracts the contact can be indirect. Some entries that bind do so weakly or less than the wild type.

Sequences of proteins named here, by UniProt entry; tags and fusion partners are left off. Residues count along the entry.
UniProt Q04206, residues 190-291: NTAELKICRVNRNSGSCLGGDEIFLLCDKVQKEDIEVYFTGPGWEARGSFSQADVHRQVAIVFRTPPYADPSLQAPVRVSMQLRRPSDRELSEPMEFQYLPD
UniProt P19838, residues 247-352: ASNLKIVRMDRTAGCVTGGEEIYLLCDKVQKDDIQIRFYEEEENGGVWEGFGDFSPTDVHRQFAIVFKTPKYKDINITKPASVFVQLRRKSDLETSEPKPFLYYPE

Target: p65-mKGN (p65 residues 190-291 fused to the N-terminal fragment of monomeric Kusabira-Green) (UniProt Q04206)
Test: split reporter; BiFC reconstitution: mKGC fusion (p50-mKGC, or cDNA of each trapped fusion in pPB-PCMV-IRES-PuroR) introduced into the bait strain HeLa-p65-mKGN; mKG fluorescence by flow cytometry

binding: binds
Substance: p50 (residues 247-352)-mKGC (from UniProt P19838 247-352) (domain or fragment)
